Among the data in article PMC5534433 are binding values, retold here.

Amino acid sequences for entries named in this document (tags omitted).
UniProt P53327: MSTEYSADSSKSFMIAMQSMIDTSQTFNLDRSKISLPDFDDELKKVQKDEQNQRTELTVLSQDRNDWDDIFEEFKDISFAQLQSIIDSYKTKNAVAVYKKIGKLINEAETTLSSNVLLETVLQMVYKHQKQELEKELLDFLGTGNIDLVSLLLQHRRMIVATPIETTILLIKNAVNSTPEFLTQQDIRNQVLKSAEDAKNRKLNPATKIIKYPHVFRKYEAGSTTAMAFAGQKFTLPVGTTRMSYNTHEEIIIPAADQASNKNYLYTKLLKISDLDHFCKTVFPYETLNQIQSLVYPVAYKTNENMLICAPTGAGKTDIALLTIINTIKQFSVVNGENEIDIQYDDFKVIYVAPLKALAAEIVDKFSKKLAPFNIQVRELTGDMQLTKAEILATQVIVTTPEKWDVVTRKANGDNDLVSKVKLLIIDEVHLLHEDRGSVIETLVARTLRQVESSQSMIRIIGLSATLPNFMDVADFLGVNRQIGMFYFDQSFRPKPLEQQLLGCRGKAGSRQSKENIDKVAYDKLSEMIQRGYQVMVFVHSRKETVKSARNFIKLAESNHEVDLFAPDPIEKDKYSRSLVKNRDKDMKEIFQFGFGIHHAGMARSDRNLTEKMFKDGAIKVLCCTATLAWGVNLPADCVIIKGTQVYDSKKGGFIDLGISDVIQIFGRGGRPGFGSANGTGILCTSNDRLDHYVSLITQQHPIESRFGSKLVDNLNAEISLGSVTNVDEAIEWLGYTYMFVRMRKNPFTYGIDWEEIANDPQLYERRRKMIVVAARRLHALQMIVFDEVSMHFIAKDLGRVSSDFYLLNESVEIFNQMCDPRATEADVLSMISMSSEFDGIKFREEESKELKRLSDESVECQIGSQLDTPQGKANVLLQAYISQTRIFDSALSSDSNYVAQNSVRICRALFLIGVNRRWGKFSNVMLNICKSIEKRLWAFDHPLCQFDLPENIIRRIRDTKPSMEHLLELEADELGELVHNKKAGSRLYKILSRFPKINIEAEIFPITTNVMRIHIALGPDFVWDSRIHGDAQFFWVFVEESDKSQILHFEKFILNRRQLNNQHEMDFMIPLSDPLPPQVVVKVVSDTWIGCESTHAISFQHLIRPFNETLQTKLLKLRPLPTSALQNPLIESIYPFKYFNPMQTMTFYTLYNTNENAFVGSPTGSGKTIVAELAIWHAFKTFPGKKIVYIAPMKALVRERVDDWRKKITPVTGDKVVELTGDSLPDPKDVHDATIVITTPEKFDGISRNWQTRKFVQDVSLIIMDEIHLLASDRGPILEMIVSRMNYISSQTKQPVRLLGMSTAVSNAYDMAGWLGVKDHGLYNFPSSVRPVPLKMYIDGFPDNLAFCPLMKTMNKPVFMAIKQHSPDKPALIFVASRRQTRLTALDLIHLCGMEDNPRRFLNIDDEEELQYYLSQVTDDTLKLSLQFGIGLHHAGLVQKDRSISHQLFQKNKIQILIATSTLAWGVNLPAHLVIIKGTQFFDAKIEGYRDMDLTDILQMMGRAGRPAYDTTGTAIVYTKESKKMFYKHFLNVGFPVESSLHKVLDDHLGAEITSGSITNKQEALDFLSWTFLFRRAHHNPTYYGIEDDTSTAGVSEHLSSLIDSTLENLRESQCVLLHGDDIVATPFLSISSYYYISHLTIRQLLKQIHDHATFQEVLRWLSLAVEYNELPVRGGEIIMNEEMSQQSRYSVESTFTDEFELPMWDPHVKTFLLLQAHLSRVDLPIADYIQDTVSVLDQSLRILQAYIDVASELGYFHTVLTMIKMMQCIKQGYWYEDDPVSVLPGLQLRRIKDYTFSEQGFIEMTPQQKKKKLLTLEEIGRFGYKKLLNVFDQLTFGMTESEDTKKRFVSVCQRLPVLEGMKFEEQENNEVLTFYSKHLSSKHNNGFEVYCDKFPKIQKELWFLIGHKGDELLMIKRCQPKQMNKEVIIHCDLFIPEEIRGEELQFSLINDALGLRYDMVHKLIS
UniProt Q8N3C0: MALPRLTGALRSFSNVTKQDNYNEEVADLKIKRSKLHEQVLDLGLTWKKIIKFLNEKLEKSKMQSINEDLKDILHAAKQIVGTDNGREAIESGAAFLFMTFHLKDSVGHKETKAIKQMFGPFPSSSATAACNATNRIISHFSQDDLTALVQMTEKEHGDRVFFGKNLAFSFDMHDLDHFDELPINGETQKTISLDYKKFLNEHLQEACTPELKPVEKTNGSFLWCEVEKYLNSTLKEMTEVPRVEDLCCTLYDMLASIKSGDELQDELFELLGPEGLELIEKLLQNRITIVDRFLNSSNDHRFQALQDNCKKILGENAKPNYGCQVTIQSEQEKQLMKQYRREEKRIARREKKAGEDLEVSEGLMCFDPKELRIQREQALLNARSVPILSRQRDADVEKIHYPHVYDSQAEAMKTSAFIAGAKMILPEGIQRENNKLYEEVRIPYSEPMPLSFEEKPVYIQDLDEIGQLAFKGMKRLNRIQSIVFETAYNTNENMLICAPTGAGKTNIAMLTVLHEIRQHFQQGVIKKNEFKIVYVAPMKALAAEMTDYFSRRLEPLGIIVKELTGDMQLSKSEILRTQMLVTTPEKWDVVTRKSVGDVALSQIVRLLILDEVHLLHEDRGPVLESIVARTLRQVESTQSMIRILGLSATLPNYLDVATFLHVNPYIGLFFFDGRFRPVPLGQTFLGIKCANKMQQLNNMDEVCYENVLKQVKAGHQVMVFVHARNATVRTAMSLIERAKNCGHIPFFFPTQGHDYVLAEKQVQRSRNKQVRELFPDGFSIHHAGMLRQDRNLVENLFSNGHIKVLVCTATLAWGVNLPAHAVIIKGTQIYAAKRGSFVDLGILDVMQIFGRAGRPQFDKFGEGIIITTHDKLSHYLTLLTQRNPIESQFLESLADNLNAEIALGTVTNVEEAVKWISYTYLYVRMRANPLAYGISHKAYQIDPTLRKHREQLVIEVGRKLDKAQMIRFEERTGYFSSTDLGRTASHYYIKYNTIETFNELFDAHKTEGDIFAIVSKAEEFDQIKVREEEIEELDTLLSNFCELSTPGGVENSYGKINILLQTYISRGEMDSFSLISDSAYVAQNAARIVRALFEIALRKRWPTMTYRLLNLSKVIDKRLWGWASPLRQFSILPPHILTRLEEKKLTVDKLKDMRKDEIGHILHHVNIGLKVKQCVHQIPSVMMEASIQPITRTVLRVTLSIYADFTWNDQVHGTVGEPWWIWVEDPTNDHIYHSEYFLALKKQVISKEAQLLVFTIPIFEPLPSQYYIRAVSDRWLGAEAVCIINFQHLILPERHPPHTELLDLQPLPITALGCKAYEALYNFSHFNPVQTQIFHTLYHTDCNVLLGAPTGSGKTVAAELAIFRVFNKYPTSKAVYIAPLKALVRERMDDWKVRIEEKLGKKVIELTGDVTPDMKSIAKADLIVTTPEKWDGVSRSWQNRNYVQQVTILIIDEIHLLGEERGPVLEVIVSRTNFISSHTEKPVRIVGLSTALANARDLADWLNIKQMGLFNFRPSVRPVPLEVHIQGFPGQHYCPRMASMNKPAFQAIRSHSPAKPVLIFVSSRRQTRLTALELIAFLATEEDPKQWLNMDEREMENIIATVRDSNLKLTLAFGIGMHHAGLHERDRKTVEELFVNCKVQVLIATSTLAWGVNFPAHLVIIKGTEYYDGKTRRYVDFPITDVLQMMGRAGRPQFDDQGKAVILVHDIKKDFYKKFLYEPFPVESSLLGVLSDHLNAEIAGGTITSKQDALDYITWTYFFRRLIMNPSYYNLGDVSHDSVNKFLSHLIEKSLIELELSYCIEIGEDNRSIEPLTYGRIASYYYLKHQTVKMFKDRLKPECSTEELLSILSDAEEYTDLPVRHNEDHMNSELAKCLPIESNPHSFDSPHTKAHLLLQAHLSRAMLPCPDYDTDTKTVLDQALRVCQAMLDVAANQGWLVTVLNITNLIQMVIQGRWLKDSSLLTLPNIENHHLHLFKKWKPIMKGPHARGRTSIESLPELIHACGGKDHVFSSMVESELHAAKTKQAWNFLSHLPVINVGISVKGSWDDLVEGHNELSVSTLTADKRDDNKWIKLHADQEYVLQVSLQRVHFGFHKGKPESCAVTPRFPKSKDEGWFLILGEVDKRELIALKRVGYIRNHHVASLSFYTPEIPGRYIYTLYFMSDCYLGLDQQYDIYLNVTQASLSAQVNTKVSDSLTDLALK

The target of assay [1] is Rqt2-HTP (His6-TEV-ProteinA) (S. cerevisiae) (UniProt P53327). Kind of assay: co-IP; affinity purification via Rqt2-HTP, Rqt3-HTP or Rqt4-HTP from yeast lysate on IgG-conjugated Dynabeads, TEV elution (Rqt-ribosome complexes); said to be independent of uS10 ubiquitination by Rqt1.
Assay [2] deals with T1, Rqt4-HTP (His6-TEV-ProteinA) (S. cerevisiae) (UniProt P36119).
T1 sequence: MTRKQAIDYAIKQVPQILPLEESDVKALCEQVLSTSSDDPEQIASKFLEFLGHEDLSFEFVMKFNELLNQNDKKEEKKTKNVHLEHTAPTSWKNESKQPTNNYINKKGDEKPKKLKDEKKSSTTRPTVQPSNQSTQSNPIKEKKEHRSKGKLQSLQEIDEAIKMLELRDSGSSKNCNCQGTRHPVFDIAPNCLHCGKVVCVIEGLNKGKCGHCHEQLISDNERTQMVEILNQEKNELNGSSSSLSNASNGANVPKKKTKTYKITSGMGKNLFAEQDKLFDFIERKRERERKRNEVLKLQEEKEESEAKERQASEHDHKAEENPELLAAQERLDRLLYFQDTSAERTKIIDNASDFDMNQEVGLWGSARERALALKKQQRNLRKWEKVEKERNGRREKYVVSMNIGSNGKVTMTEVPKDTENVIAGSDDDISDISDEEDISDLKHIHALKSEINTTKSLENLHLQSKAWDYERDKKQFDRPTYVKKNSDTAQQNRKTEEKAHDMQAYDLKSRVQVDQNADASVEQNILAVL
Described as above.

Assay [3] concerns the target Rqt2-FTP (overexpressed) (S. cerevisiae) (UniProt P53327). In words: co-IP; Rqt2-FTP, Rqt3-3HA and Rqt4-3HA overexpressed in yeast; IgG beads, TEV elution, benzonase to digest the ribosome, re-purified on FLAG-M2 resin.
Assay [4] addresses T2, C-terminal FLAG-TEV-ProtA-tagged Rqt1 (Hel2) (S. cerevisiae) (UniProt Q05580).
T2 sequence: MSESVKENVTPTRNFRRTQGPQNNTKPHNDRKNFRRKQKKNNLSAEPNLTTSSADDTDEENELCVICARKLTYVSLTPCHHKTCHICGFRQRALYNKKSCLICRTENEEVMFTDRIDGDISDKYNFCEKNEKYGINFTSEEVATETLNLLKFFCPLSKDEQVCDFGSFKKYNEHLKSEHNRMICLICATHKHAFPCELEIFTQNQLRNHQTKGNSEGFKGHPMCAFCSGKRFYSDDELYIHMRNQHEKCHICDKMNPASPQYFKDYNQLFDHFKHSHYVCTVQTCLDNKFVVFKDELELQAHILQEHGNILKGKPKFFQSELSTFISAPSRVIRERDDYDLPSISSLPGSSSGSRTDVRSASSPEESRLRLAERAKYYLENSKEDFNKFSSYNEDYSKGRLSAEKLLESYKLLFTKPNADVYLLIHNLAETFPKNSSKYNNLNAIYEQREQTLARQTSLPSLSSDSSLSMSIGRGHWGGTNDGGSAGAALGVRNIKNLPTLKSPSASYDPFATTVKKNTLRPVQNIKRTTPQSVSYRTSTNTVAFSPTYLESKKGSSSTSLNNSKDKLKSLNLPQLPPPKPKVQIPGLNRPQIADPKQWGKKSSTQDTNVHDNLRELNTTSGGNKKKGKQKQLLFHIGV
Kind of assay: co-IP; Rqt1-ribosome complex purified from Rqt3-Ub-m mutant cells (Fig. 3d); how the partners were detected is not told.

For assay [5], the target named is T3, Rqt3-HTP (His6-TEV-ProteinA) (S. cerevisiae) (UniProt P53137).
T3 sequence: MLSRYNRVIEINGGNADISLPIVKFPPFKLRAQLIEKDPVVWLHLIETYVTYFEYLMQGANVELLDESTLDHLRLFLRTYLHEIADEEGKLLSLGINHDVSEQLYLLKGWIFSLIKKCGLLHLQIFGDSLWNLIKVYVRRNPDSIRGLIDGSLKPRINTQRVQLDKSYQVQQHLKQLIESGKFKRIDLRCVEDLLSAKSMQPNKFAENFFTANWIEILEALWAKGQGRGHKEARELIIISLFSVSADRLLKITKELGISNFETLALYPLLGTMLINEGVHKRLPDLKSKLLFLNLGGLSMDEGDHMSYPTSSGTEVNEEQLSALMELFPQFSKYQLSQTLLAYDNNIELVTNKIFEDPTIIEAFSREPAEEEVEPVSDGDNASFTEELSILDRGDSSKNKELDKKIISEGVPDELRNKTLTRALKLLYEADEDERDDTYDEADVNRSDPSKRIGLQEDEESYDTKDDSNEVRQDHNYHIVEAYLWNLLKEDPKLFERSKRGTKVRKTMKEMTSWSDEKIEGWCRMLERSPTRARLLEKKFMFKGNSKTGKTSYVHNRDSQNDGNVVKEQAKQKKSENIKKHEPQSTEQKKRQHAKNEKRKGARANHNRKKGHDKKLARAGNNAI
In words: co-IP; affinity purification via Rqt2-HTP, Rqt3-HTP or Rqt4-HTP from yeast lysate on IgG-conjugated Dynabeads, TEV elution (Rqt-ribosome complexes); said to be independent of uS10 ubiquitination by Rqt1.

In assay [6] the target is Activating signal co-integrator complex subunit 3 (ASCC3) (human) (UniProt Q8N3C0). Kind of assay: co-IP; immunoprecipitation of ASCC3 from HEK293T total cell lysate with 1 μg antibody and Protein G Dynabeads, 4 °C; 25 mM HEPES-KOH pH 7.4, 150 mM NaCl, 5 mM MgCl2, 1 mM EDTA, 1% IGEPAL-CA630; western blot.

These are yes or no findings as the source states them, for the method shown. In cells and extracts the contact can be indirect. Some entries that bind do so weakly or less than the wild type. For some assays here: Where a sequence is shown, tags or fusion partners need not be part of it.

B1: Cue3 (coupling of ubiquitin conjugation to ER degradation 3) / Rqt3 (protein, UniProt P53137 1-624)
chain: MLSRYNRVIEINGGNADISLPIVKFPPFKLRAQLIEKDPVVWLHLIETYVTYFEYLMQGANVELLDESTLDHLRLFLRTYLHEIADEEGKLLSLGINHDVSEQLYLLKGWIFSLIKKCGLLHLQIFGDSLWNLIKVYVRRNPDSIRGLIDGSLKPRINTQRVQLDKSYQVQQHLKQLIESGKFKRIDLRCVEDLLSAKSMQPNKFAENFFTANWIEILEALWAKGQGRGHKEARELIIISLFSVSADRLLKITKELGISNFETLALYPLLGTMLINEGVHKRLPDLKSKLLFLNLGGLSMDEGDHMSYPTSSGTEVNEEQLSALMELFPQFSKYQLSQTLLAYDNNIELVTNKIFEDPTIIEAFSREPAEEEVEPVSDGDNASFTEELSILDRGDSSKNKELDKKIISEGVPDELRNKTLTRALKLLYEADEDERDDTYDEADVNRSDPSKRIGLQEDEESYDTKDDSNEVRQDHNYHIVEAYLWNLLKEDPKLFERSKRGTKVRKTMKEMTSWSDEKIEGWCRMLERSPTRARLLEKKFMFKGNSKTGKTSYVHNRDSQNDGNVVKEQAKQKKSENIKKHEPQSTEQKKRQHAKNEKRKGARANHNRKKGHDKKLARAGNNAI
On to B1, for which the binding result in assay [1] and in assay [2] was “binds” each time.

B2: Rqt3-3HA (overexpressed) (protein, UniProt P53137 1-624)
chain: MLSRYNRVIEINGGNADISLPIVKFPPFKLRAQLIEKDPVVWLHLIETYVTYFEYLMQGANVELLDESTLDHLRLFLRTYLHEIADEEGKLLSLGINHDVSEQLYLLKGWIFSLIKKCGLLHLQIFGDSLWNLIKVYVRRNPDSIRGLIDGSLKPRINTQRVQLDKSYQVQQHLKQLIESGKFKRIDLRCVEDLLSAKSMQPNKFAENFFTANWIEILEALWAKGQGRGHKEARELIIISLFSVSADRLLKITKELGISNFETLALYPLLGTMLINEGVHKRLPDLKSKLLFLNLGGLSMDEGDHMSYPTSSGTEVNEEQLSALMELFPQFSKYQLSQTLLAYDNNIELVTNKIFEDPTIIEAFSREPAEEEVEPVSDGDNASFTEELSILDRGDSSKNKELDKKIISEGVPDELRNKTLTRALKLLYEADEDERDDTYDEADVNRSDPSKRIGLQEDEESYDTKDDSNEVRQDHNYHIVEAYLWNLLKEDPKLFERSKRGTKVRKTMKEMTSWSDEKIEGWCRMLERSPTRARLLEKKFMFKGNSKTGKTSYVHNRDSQNDGNVVKEQAKQKKSENIKKHEPQSTEQKKRQHAKNEKRKGARANHNRKKGHDKKLARAGNNAI
As to B2, in assay [3], the binding entry is recorded as “binds”.

B3: Rqt4-3HA (overexpressed) (protein, UniProt P36119 1-530)
chain: MTRKQAIDYAIKQVPQILPLEESDVKALCEQVLSTSSDDPEQIASKFLEFLGHEDLSFEFVMKFNELLNQNDKKEEKKTKNVHLEHTAPTSWKNESKQPTNNYINKKGDEKPKKLKDEKKSSTTRPTVQPSNQSTQSNPIKEKKEHRSKGKLQSLQEIDEAIKMLELRDSGSSKNCNCQGTRHPVFDIAPNCLHCGKVVCVIEGLNKGKCGHCHEQLISDNERTQMVEILNQEKNELNGSSSSLSNASNGANVPKKKTKTYKITSGMGKNLFAEQDKLFDFIERKRERERKRNEVLKLQEEKEESEAKERQASEHDHKAEENPELLAAQERLDRLLYFQDTSAERTKIIDNASDFDMNQEVGLWGSARERALALKKQQRNLRKWEKVEKERNGRREKYVVSMNIGSNGKVTMTEVPKDTENVIAGSDDDISDISDEEDISDLKHIHALKSEINTTKSLENLHLQSKAWDYERDKKQFDRPTYVKKNSDTAQQNRKTEEKAHDMQAYDLKSRVQVDQNADASVEQNILAVL
Consider B3, for which the binding entry in assay [3] is recorded as “binds”.

B4: YKR023W / Rqt4 (protein, UniProt P36119 1-530)
chain: MTRKQAIDYAIKQVPQILPLEESDVKALCEQVLSTSSDDPEQIASKFLEFLGHEDLSFEFVMKFNELLNQNDKKEEKKTKNVHLEHTAPTSWKNESKQPTNNYINKKGDEKPKKLKDEKKSSTTRPTVQPSNQSTQSNPIKEKKEHRSKGKLQSLQEIDEAIKMLELRDSGSSKNCNCQGTRHPVFDIAPNCLHCGKVVCVIEGLNKGKCGHCHEQLISDNERTQMVEILNQEKNELNGSSSSLSNASNGANVPKKKTKTYKITSGMGKNLFAEQDKLFDFIERKRERERKRNEVLKLQEEKEESEAKERQASEHDHKAEENPELLAAQERLDRLLYFQDTSAERTKIIDNASDFDMNQEVGLWGSARERALALKKQQRNLRKWEKVEKERNGRREKYVVSMNIGSNGKVTMTEVPKDTENVIAGSDDDISDISDEEDISDLKHIHALKSEINTTKSLENLHLQSKAWDYERDKKQFDRPTYVKKNSDTAQQNRKTEEKAHDMQAYDLKSRVQVDQNADASVEQNILAVL
On to B4, for which the binding result in assay [4], in assay [1] and in assay [5] was “binds” in each case.

B5: Zinc-finger protein 598 (ZNF598) (enzyme, UniProt Q86UK7 1-904)
chain: MAAAGGAEGRRAALEAAAAAAPERGGGSCVLCCGDLEATALGRCDHPVCYRCSTKMRVLCEQRYCAVCREELRQVVFGKKLPAFATIPIHQLQHEKKYDIYFADGKVYALYRQLLQHECPRCPELPPFSLFGDLEQHMRRQHELFCCRLCLQHLQIFTYERKWYSRKDLARHRMQGDPDDTSHRGHPLCKFCDERYLDNDELLKHLRRDHYFCHFCDSDGAQDYYSDYAYLREHFREKHFLCEEGRCSTEQFTHAFRTEIDLKAHRTACHSRSRAEARQNRHIDLQFSYAPRHSRRNEGVVGGEDYEEVDRYSRQGRVARAGTRGAQQSRRGSWRYKREEEDREVAAAVRASVAAQQQEEARRSEDQEEGGRPKKEEAAARGPEDPRGPRRSPRTQGEGPGPKETSTNGPVSQEAFSVTGPAAPGCVGVPGALPPPSPKLKDEDFPSLSASTSSSCSTAATPGPVGLALPYAIPARGRSAFQEEDFPALVSSVPKPGTAPTSLVSAWNSSSSSKKVAQPPLSAQATGSGQPTRKAGKGSRGGRKGGPPFTQEEEEDGGPALQELLSTRPTGSVSSTLGLASIQPSKVGKKKKVGSEKPGTTLPQPPPATCPPGALQAPEAPASRAEGPVAVVVNGHTEGPAPARSAPKEPPGLPRPLGSFPCPTPQEDFPALGGPCPPRMPPPPGFSAVVLLKGTPPPPPPGLVPPISKPPPGFSGLLPSPHPACVPSPATTTTTKAPRLLPAPRAYLVPENFRERNLQLIQSIRDFLQSDEARFSEFKSHSGEFRQGLISAAQYYKSCRDLLGENFQKVFNELLVLLPDTAKQQELLSAHTDFCNREKPLSTKSKKNKKSAWQATTQQAGLDCRVCPTCQQVLAHGDASSHQALHAARDDDFPSLQAIARIIT
For B5, in assay [6], the binding entry is on record as “binds”.
